For test [1], the target named is T1, Flag-CHMP2B (Homo sapiens, UniProt Q9UQN3). Nature of the test: co-immunoprecipitation in cells (FIG. 1D).
For test [2], the target named is T1, Flag-CHMP2B. Briefly: co-immunoprecipitation, Flag-CHMP2B and GFP-peptides (FIG. 1D).

By UniProt entry, the sequences of proteins in these tests, tags left out.
UniProt Q9UQN3: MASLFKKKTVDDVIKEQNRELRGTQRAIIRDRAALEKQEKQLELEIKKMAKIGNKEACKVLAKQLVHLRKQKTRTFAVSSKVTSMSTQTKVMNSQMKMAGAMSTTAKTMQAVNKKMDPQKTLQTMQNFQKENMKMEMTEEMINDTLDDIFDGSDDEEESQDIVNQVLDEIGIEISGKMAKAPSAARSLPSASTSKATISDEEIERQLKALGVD

No constants are given. Whether binding was seen depends on the method and setting. Binding seen in cells or lysates may run through a third protein. Some results given as binding are weak or reduced against the parent protein; the word gives no strength. Tags and fused reporters may be left off the sequences shown.

B1: GFP-tagged PDpep1.3 peptide (peptide, not shown: large carriers)
chain: DEEIERQLKALG
On to B1, for which the binding entry in the test with Flag-CHMP2B [1] and with Flag-CHMP2B [2] was “binds” throughout.

B2: GFP-tagged PDpep1 peptide (peptide, not shown: large carriers)
chain: IPIQLKA
With B2, the binding result with Flag-CHMP2B [2] is recorded as “binds”.

For the origin of these results see US20250051391A1, “PEPTIDE INHIBITORS AND METHODS FOR INHIBITING PROTEIN AGGREGATION IN NEURONS AND NEURODEGENERATIVE DISEASES” (THE GOVERNING COUNCIL OF THE UNIVERSITY OF TORONTO, priority 2021, published 2025).
